Measurements as given in PubChem BioAssay AID2417 (National Center for Advancing Translational Sciences (NCATS), 2010).
Screen size: about 140,000 compounds; about 4,300 (3.1%) were called active. Inconclusive means that the source gave no clear call. Such entries were picked first, then a sample of the others.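 How the source made its calls: active means readout at or below -70, meaning at least 70% loss of cells showing the perinucleolar compartment, a nuclear body marking cancer cells; inconclusive means readout between -30 and a set limit; inactive means the rest.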

Assay: High Content Assay for Compounds that inhibit the Assembly of the Perinucleolar Compartment;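 further: plate controls were DMSO wells for no effect and camptothecin positive control wells for full effect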
Details: PC3M PTB-GFP, PNC prevalence imaging, 16 h; at 10 µM; hits give low values
In short: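 Read-out is percentage of cells bearing a perinucleolar compartment, from automated 20x imaging of fixed, Hoechst-stained PC3M PTB-GFP cells. Cells were seeded 4 h, then exposed 16 h to compound (23 nl of library stock) in duplicate plates.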
In the case of CCCCN(CCCNc1ncnc2nc[nH]c12)c1ccccc1, the activity change (PNC), negative = inhibition is reported as inactive: 31.5%. With COC(=O)c1ccc(NC(=O)CSc2nnc(CNc3ccc(OC)cc3)n2C)cc1 the activity change (PNC), negative = inhibition was inconclusive: -31.4%. In the case of O=C(NCCCN1CCOCC1)C(=O)N/N=C/c1c2ccccc2cc2ccccc12, the activity change (PNC), negative = inhibition is reported as inconclusive: -35.9%. In the case of Cc1cc(OCC(=O)NCCO)cc(C)c1Cl, the activity change (PNC), negative = inhibition is reported as inconclusive: -70.8%. In the case of O=C(c1ccc(Cl)cc1)c1c[nH]cc1-c1ccccc1, the activity change (PNC), negative = inhibition is reported as inconclusive: -31.5%. With CC(C)NC(=O)Cn1c(SCC(=O)N2c3ccccc3CC2C)nc2ccccc21 (stereo unspecified) the activity change (PNC), negative = inhibition was inconclusive: -38.3%. With COc1ccc(C2(C(=O)Nc3ccc(C(=O)O)cc3)CCOCC2)cc1 the activity change (PNC), negative = inhibition was inconclusive: -62.1%. For Cn1c(=O)oc2cc(S(=O)(=O)NC3CCCCCCC3)ccc21, the activity change (PNC), negative = inhibition was inconclusive: -67.6%. For COC(=O)COc1ccc(S(=O)(=O)NCc2cccnc2)cc1, the activity change (PNC), negative = inhibition was inconclusive: -55.4%. In the case of CCN(CC)S(=O)(=O)c1cc(Br)ccc1OC, the activity change (PNC), negative = inhibition is reported as inconclusive: -45.5%. With Cc1ccc(-c2nc(N/N=C/c3ccncc3)c3ccccc3n2)cc1 the activity change (PNC), negative = inhibition was active: -83.3%. For Oc1[nH]c2ccccc2c1N=NC(=S)NCCc1ccccc1, the activity change (PNC), negative = inhibition was inactive: -24.8%. In the case of COc1ccc(CCNC(=O)C2CCN(Cc3nc(-c4ccccc4F)oc3C)CC2)cc1OC, the activity change (PNC), negative = inhibition is reported as inconclusive: -34.3%. In the case of Cn1cc(C(CC(=O)O)C(=O)O)c2ccccc21 (stereo unspecified), the activity change (PNC), negative = inhibition is reported as inconclusive: -30.6%. With Cc1ccc(S(=O)(=O)/N=C(/NC(=S)Nc2ccccc2)c2ccccc2)cc1 the activity change (PNC), negative = inhibition was inactive: -5.26%. For Cc1noc(NS(=O)(=O)c2ccc(NC(=O)CSc3nc4ccccc4s3)cc2)c1C, the activity change (PNC), negative = inhibition was inconclusive: -46.7%. In the case of CCN1CCN(CCn2c(=S)[nH]c3ccccc3c2=O)CC1, the activity change (PNC), negative = inhibition is reported as inconclusive: -57.6%. With COc1ccc(-c2nsc3c(N4CCN(S(=O)(=O)c5ccccc5)CC4)ncnc23)cc1 the activity change (PNC), negative = inhibition was inconclusive: -38.4%. For CCCn1c(OC)nc2c1c(=O)n(C)c(=O)n2C, the activity change (PNC), negative = inhibition was inconclusive: -68.7%. With Cc1sc2ncnc(Nc3ccccc3)c2c1C the activity change (PNC), negative = inhibition was inconclusive: -45.1%. For COc1cccc(S(=O)(=O)Nc2ccc(C(=O)Nc3ccncc3)cc2)c1, the activity change (PNC), negative = inhibition was inconclusive: -56.9%. For COc1cc(S(=O)(=O)NCCCN2CCOCC2)ccc1Cl, the activity change (PNC), negative = inhibition was inconclusive: -39.8%. For O=S(=O)(NCCOCCNS(=O)(=O)c1ccccc1)c1ccccc1, the activity change (PNC), negative = inhibition was inactive: -18.8%. In the case of COc1ccc(S(=O)(=O)NCCSc2ccc(Cl)cc2)cc1OC, the activity change (PNC), negative = inhibition is reported as inconclusive: -39.3%. With O=C(Nn1cc(C(=O)N2CCN(c3ccccc3F)CC2)c2ccccc2c1=O)c1cnccn1 the activity change (PNC), negative = inhibition was inconclusive: -33.6%. In the case of COc1ccc(Cc2nnc(NC(=O)c3cccs3)s2)cc1, the activity change (PNC), negative = inhibition is reported as inconclusive: -48.4%. For COc1ccc(C(=O)Oc2c(CN3CCOCC3)cc(Cl)c3cccnc23)cc1, the activity change (PNC), negative = inhibition was inconclusive: -74.7%. For CCOC(=O)Cn1nnnc1CN(CCc1ccccc1)Cc1cc2cc(CC)ccc2[nH]c1=O, the activity change (PNC), negative = inhibition was inactive: 18.9%. For O=S(=O)(CCc1nc2ccccc2s1)c1ccc2ccccc2c1, the activity change (PNC), negative = inhibition was inconclusive: -34.4%. In the case of CCOC(=O)Cc1csc(NC(=O)Nc2cccc(Cl)c2)n1, the activity change (PNC), negative = inhibition is reported as inconclusive: -46.7%. With Cc1ccc(NC(=O)c2cc(S(=O)(=O)NCCc3ccccc3)ccc2F)cc1Cl the activity change (PNC), negative = inhibition was inconclusive: -51.1%. For N/C(=N\OS(=O)(=O)c1ccccc1)c1cccnc1, the activity change (PNC), negative = inhibition was inconclusive: -48.4%. In the case of O=S(=O)(c1ccccc1)N1CCn2c(nc3ccccc32)C1, the activity change (PNC), negative = inhibition is reported as inconclusive: -31.3%. With CCN1C(=O)/C(=C/N(C(C)=O)c2ccccc2)N(c2ccccc2)C1=S the activity change (PNC), negative = inhibition was inactive: 7.48%. In the case of S=C(c1ccc(-c2ccc(Cl)cc2Cl)o1)N1CCCCC1, the activity change (PNC), negative = inhibition is reported as inactive: 22%. With CSc1nc(SCC(N)=O)c2c3c(sc2n1)CN(C)CC3 the activity change (PNC), negative = inhibition was inconclusive: -46.3%. With CC(OC(=O)c1snc(C(=O)NC2CCCCC2)c1N)C(=O)NC1CCCCC1 (stereo unspecified) the activity change (PNC), negative = inhibition was inactive: -25.1%. In the case of COc1ccc(-n2cnnc2SCc2csc(-c3ccccc3)n2)cc1, the activity change (PNC), negative = inhibition is reported as inactive: 9.67%. With CN(C)CCCN(C(=O)c1cccs1)c1nc(-c2ccccc2)cs1 the activity change (PNC), negative = inhibition was inactive: -16.6%. With COc1ccc(C(=O)N=c2nc3ccccn3s2)cc1 the activity change (PNC), negative = inhibition was inactive: 19%. For COc1ccc(C(=O)NNC(=O)c2cnccn2)cc1[N+](=O)[O-], the activity change (PNC), negative = inhibition was inconclusive: -76.6%. For C=CCN1C(=O)C(Cc2ccc(C)cc2)S/C1=N/N=C/c1ccco1 (stereo unspecified), the activity change (PNC), negative = inhibition was inconclusive: -68.7%. In the case of Cc1cccc(C)c1NS(=O)(=O)c1ccc(F)cc1, the activity change (PNC), negative = inhibition is reported as inactive: 27.4%. In the case of CCCCNC(=O)N1CCc2ccccc2C1, the activity change (PNC), negative = inhibition is reported as active: -114%. In the case of O=C(CSc1nnc(NC(=O)CN2CCOCC2)s1)Nc1ccccc1, the activity change (PNC), negative = inhibition is reported as inconclusive: -38.5%. With O=Cc1cn(CC(=O)N2CCCc3ccccc32)c2ccccc12 the activity change (PNC), negative = inhibition was active: -100%.
